Data taken from the supplement of paper PMC10849652.
Some of the results follow.

Amino acid sequences for entries named in this document (tags omitted). A change or cut given only in a name is not applied to a line headed by its entry.
UniProt Q99547: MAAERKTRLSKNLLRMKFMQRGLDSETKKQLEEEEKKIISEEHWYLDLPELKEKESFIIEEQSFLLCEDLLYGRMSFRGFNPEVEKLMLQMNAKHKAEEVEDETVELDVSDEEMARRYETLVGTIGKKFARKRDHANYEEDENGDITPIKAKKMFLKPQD
UniProt Q9BRT3: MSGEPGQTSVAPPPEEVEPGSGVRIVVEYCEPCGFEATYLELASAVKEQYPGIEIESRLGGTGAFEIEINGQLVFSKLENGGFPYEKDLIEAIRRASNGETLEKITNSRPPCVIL
UniProt Q9BWT6: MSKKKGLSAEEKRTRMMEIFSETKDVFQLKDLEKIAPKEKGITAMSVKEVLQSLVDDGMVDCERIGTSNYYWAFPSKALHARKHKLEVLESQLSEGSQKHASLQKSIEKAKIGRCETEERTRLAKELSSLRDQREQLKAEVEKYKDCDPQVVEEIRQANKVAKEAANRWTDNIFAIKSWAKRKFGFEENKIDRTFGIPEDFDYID
UniProt Q99549: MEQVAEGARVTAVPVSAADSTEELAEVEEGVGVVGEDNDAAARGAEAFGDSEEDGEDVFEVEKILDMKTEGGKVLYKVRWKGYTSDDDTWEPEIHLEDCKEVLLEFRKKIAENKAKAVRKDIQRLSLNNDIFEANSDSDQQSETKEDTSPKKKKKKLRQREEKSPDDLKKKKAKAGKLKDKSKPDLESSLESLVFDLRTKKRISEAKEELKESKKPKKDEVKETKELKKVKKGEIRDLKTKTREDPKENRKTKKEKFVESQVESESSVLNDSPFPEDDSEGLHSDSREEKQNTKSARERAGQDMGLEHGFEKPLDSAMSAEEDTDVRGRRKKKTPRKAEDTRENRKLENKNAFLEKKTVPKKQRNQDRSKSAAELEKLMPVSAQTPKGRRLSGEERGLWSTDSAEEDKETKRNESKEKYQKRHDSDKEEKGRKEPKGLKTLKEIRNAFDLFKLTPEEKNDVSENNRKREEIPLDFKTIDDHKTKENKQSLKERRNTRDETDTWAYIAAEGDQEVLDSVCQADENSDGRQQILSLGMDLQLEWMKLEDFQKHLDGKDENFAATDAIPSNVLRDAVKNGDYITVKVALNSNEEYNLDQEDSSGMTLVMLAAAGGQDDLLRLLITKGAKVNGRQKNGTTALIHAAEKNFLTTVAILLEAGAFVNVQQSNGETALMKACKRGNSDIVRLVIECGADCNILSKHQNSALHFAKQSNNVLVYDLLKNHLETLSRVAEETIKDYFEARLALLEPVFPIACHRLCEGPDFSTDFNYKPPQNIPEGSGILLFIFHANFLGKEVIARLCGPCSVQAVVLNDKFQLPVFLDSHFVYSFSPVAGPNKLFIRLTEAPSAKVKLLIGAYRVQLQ
UniProt Q99583: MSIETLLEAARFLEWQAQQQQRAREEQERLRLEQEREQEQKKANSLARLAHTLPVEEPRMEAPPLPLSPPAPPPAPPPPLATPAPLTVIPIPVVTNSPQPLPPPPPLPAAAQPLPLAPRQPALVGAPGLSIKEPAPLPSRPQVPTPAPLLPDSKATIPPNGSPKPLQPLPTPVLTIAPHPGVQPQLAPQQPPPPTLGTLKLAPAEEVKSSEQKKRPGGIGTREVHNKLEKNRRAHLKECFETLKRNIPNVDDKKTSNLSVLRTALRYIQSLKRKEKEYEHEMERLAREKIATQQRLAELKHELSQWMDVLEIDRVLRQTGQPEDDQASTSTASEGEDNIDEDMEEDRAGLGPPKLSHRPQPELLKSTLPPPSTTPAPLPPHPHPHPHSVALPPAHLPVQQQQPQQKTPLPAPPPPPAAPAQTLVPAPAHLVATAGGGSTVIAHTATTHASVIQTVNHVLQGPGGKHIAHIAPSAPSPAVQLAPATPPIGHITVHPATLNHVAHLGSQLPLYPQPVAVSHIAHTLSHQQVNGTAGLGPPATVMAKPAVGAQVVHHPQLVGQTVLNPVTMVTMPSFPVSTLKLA
UniProt Q7L1V2: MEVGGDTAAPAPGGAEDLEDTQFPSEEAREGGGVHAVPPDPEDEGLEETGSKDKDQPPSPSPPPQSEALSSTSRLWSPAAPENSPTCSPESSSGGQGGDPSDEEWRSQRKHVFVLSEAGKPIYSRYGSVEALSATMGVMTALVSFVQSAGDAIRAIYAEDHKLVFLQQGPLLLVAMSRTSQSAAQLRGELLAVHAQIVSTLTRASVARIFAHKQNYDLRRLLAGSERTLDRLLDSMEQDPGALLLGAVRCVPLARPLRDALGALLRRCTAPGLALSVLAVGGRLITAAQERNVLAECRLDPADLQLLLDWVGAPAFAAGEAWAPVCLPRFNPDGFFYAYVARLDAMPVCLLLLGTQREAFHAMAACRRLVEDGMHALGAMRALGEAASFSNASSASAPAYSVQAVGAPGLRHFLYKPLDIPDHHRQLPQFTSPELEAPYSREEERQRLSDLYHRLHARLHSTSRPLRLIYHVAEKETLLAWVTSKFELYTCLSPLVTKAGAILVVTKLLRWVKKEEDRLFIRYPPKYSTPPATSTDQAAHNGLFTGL
UniProt Q9UH92: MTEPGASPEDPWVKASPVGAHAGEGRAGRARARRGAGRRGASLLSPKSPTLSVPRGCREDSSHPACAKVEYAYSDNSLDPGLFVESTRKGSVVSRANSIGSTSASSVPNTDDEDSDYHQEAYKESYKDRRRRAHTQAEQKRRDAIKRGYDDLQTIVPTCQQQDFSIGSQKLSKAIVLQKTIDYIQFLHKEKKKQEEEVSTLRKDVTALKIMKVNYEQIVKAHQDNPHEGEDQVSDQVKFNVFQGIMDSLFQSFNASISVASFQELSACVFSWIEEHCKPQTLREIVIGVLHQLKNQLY
UniProt Q8WV92, whole entry, looked up: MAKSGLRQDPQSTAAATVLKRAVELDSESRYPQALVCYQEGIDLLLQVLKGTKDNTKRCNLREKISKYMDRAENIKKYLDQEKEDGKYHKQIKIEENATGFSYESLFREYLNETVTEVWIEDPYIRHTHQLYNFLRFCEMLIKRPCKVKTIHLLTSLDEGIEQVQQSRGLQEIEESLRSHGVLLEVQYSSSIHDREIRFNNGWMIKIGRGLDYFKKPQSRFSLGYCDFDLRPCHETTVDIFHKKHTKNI
UniProt Q00013: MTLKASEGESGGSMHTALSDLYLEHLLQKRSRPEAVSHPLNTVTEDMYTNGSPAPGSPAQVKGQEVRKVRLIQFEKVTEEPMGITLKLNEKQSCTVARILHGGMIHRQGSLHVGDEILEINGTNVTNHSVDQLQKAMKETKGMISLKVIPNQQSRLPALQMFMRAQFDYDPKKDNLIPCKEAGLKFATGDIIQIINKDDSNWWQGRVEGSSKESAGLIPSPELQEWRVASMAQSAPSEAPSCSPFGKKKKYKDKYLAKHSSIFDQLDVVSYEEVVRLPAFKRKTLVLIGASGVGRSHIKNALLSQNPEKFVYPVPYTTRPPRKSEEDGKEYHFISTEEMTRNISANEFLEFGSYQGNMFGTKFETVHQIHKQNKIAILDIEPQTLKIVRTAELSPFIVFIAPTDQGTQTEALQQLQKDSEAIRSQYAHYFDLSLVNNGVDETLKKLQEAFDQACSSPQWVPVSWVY
UniProt Q9H000: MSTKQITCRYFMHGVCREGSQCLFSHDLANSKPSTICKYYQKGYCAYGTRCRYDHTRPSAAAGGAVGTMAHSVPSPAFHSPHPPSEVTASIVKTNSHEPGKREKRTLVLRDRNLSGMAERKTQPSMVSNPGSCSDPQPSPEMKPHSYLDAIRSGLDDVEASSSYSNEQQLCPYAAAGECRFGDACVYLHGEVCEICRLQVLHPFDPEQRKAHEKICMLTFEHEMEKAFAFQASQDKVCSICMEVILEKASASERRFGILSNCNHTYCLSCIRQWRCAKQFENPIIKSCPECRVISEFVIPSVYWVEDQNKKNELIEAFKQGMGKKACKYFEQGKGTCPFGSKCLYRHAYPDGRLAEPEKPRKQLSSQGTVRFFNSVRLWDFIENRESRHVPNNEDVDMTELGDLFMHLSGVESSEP
UniProt O95396: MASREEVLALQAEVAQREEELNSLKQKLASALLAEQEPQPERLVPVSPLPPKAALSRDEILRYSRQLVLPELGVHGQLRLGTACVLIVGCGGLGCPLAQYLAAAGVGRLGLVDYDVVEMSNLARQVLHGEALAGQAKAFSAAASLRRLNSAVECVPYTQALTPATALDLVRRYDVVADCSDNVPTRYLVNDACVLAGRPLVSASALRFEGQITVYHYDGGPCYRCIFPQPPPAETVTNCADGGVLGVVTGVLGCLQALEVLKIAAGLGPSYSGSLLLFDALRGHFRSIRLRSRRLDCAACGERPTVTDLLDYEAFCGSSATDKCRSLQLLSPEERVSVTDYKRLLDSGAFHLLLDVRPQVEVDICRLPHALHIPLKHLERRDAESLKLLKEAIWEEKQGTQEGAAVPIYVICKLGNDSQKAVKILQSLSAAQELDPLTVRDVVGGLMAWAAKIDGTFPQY
UniProt Q15014, whole entry, looked up: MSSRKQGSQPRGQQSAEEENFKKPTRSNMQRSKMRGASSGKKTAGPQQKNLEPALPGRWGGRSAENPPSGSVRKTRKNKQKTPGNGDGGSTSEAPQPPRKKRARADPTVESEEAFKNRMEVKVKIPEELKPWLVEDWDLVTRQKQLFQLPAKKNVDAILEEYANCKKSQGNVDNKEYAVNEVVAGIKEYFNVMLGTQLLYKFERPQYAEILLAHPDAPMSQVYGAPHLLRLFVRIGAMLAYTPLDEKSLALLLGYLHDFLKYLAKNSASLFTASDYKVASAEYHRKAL
UniProt Q8IYU8: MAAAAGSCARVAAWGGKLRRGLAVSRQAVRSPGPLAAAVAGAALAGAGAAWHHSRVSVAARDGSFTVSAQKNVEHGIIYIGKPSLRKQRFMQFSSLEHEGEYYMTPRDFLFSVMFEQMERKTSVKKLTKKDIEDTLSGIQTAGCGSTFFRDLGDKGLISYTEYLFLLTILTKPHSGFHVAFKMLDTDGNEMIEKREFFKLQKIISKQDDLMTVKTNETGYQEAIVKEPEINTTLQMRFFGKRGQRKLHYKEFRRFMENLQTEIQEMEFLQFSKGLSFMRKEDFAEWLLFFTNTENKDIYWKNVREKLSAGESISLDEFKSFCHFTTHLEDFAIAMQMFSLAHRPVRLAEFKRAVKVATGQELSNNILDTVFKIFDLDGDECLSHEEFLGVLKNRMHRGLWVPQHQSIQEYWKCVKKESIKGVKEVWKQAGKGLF
UniProt Q8N4C8: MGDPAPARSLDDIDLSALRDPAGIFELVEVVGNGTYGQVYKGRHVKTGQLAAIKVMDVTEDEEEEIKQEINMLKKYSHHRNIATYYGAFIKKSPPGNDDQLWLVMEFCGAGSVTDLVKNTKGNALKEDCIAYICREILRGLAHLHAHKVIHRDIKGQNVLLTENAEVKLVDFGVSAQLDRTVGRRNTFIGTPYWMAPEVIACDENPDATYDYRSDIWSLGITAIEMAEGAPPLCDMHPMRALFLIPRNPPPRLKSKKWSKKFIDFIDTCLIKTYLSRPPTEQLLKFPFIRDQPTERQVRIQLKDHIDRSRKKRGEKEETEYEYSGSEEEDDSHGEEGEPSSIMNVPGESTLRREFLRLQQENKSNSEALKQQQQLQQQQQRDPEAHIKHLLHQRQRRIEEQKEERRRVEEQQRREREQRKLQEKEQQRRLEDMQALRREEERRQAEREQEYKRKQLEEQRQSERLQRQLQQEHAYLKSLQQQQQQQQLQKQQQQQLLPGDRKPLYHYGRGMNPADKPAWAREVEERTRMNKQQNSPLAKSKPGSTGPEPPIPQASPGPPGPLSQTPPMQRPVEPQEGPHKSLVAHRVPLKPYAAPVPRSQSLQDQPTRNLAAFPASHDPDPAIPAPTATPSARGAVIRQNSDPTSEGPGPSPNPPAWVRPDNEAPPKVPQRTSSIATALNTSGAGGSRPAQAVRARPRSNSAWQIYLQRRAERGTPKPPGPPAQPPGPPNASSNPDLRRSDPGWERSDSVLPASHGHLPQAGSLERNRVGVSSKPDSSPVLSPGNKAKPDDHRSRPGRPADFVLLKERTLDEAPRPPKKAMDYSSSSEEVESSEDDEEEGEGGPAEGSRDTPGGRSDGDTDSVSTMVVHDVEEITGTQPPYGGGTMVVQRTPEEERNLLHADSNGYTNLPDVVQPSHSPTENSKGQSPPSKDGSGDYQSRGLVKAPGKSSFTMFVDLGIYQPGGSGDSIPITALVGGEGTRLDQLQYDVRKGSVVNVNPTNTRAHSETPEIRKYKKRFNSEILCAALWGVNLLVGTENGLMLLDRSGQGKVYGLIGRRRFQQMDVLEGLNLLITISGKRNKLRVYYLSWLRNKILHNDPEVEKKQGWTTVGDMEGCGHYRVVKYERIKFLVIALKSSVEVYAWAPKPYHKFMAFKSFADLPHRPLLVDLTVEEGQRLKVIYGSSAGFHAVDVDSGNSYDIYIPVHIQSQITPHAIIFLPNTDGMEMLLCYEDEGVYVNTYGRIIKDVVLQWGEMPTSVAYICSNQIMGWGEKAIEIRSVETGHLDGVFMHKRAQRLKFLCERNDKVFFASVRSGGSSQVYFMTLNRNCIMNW
UniProt P14174: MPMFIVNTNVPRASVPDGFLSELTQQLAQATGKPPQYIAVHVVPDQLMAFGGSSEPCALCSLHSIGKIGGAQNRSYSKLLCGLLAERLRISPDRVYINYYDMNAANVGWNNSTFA

Legend:
Experiment in all cases: log2 fold change, soluble protein after heating vs DMSO (PISA); higher = thermal stabilisation; K562 cells, 10 uM, 30 min; active = over 0.2 and 3.5 SD of the protein, either way, in both replicates (recomputed)
[1] = compound: CS(=O)(=O)c1ccc(-c2cnc(N)c(C(=O)Nc3ccccc3)n2)cc1
Procedure, shortened: (§1)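 Thermal stability values are relative to control samples and come from duplicates. They are expressed as log2 fold changes. For measurement, K562 cells (2×10^6 cells/mL) received 10 μM compound for 30 min, and aliquots were heated for 3 min over 48°C-58°C, pooled, and extracted at 4°C in PBS with 0.5% NP-40. Soluble protein, the supernatant after 21,000xg for 90 min, was quantified by TMTpro 16plex LC-MS/MS with equalised channel sums.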

crizotinib = compound: C[C@@H](Oc1cc(-c2cnn(C3CCNCC3)c2)cnc1N)c1c(Cl)ccc(F)c1Cl [crizotinib]
Procedure, shortened: as §1

[2] = compound: C[C@@H]1COCCN1C2=NC(=NC(=C2)C3(CC3)S(=O)(=O)C)C4=C5C=CNC5=CC=C4
Procedure, shortened: as §1

[3] = compound: C[C@H](C1=CC=C(C=C1)C(=O)NC2=C3C=CNC3=NC=C2)N
Procedure, shortened: as §1

duvelisib = compound: C[C@H](Nc1ncnc2nc[nH]c12)c1cc2cccc(Cl)c2c(=O)n1-c1ccccc1 [duvelisib]
Procedure, shortened: as §1

gandotinib = compound: Cc1cc(Nc2cc(CN3CCOCC3)c3nc(C)c(Cc4ccc(Cl)cc4F)n3n2)n[nH]1 [gandotinib]
Procedure, shortened: as §1

tozasertib = compound: Cc1cc(Nc2cc(N3CCN(C)CC3)nc(Sc3ccc(NC(=O)C4CC4)cc3)n2)n[nH]1 [tozasertib]
Procedure, shortened: as §1

[4] = compound: Cc1cc(SCc2sc(-c3ccc(C(F)(F)F)cc3)nc2C)ccc1OCC(=O)O
Procedure, shortened: as §1

doramapimod = compound: Cc1ccc(-n2nc(C(C)(C)C)cc2NC(=O)Nc2ccc(OCCN3CCOCC3)c3ccccc23)cc1 [doramapimod]
Procedure, shortened: as §1

ispinesib = compound: Cc1ccc(C(=O)N(CCCN)[C@@H](c2nc3cc(Cl)ccc3c(=O)n2Cc2ccccc2)C(C)C)cc1 [ispinesib]
Procedure, shortened: as §1

Measured: log2 fold change

MPHOSPH6 (UniProt Q99547)
inactive: [1] -0.044 | crizotinib -0.056 | [2] -0.122 | [3] 0.143 | duvelisib -0.05 | gandotinib 0.119 | tozasertib -0.006 | [4] 0.059 | doramapimod 0.076 | ispinesib -0.248

MICU1 isoform 3 (UniProt Q9BPX6)
active: ispinesib -0.458
inactive: [1] -0.024 | crizotinib -0.207 | [2] -0.101 | [3] 0.023 | gandotinib -0.128 | [4] 0.021 | doramapimod -0.011

MIEN1 (UniProt Q9BRT3)
inactive: [1] 0.03 | crizotinib 0.152 | [3] -0.193 | gandotinib 0.026 | [4] 0.032 | doramapimod 0.029 | ispinesib 0.235
active: [2] 0.314

MICOS13 (UniProt Q5XKP0)
inactive: [1] 0.049 | crizotinib -0.164 | [2] 0.156 | [3] -0.08 | gandotinib -0.216 | [4] -0.055 | doramapimod -0.027
active: ispinesib -0.257

MND1 (UniProt Q9BWT6)
inactive: [1] 0 | crizotinib -0.217 | [2] 0.005 | [3] 0.018 | gandotinib -0.076 | [4] -0.024 | doramapimod 0.009 | ispinesib -0.184

MPHOSPH10 (UniProt O00566)
inactive: [1] -0.083 | crizotinib 0.026 | [2] -0.25 | [3] 0.353 | gandotinib 0.189 | [4] -0.046 | doramapimod 0.049 | ispinesib -0.023

MPHOSPH8 isoform 2 (UniProt Q99549)
inactive: [1] -0.068 | crizotinib -0.036 | [2] -0.05 | [3] 0.045 | [4] -0.018 | doramapimod 0.059 | ispinesib 0.18

MMGT1 (UniProt Q8N4V1)
inactive: [1] -0.014 | crizotinib 0.218 | [2] 0.197 | [3] -0.04 | duvelisib 0.108 | tozasertib 0.004 | [4] -0.021 | doramapimod -0.03 | ispinesib 0.077

MNT (UniProt Q99583)
inactive: [1] -0.018 | crizotinib 0.16 | [2] 0.036 | [3] -0.025 | gandotinib -0.076 | tozasertib 0.158 | doramapimod -0.001 | ispinesib -0.015

MON2 isoform 5 (UniProt Q7Z3U7)
inactive: [1] 0.044 | crizotinib -0.065 | [2] 0.081 | [3] 0.033 | gandotinib -0.105 | [4] 0.171 | doramapimod 0.077 | ispinesib -0.055

MON1B (UniProt Q7L1V2)
inactive: [1] 0.006 | [2] 0.069 | [3] -0.001 | gandotinib -0.106 | [4] 0.005 | doramapimod 0.022 | ispinesib -0.102
active: crizotinib -0.342

MLX (UniProt Q9UH92)
inactive: [1] -0.038 | crizotinib -0.188 | [2] 0.092 | [3] -0.001 | gandotinib -0.239 | [4] 0.115 | doramapimod 0.03 | ispinesib -0.186

MRM1 (UniProt Q6IN84)
inactive: [1] -0.084 | crizotinib -0.105 | [2] -0.298 | [3] 0.215 | duvelisib 0.009 | tozasertib 0.023 | [4] 0.048 | doramapimod 0.003 | ispinesib -0.04

MITD1 (UniProt Q8WV92)
inactive: [1] -0.082 | crizotinib -0.271 | [2] -0.055 | [3] 0.133 | gandotinib -0.068 | [4] -0.147 | doramapimod 0.103 | ispinesib -0.072

MRPL50 (UniProt Q8N5N7)
inactive: [1] -0.031 | crizotinib 0.133 | [2] 0.045 | [3] -0.045 | gandotinib 0.04 | [4] 0.104 | doramapimod 0.092 | ispinesib 0.199

MPP1 (UniProt Q00013)
inactive: [1] 0.064 | crizotinib -0.092 | [2] 0.05 | [3] 0.001 | gandotinib -0.073 | [4] 0.061 | doramapimod 0.023 | ispinesib -0.108

MKRN2 (UniProt Q9H000)
inactive: [1] -0.035 | crizotinib -0.094 | [2] -0.077 | [3] 0.117 | gandotinib 0.221 | [4] 0.076 | doramapimod -0.005 | ispinesib -0.161

MOCS3 (UniProt O95396)
inactive: [1] -0.031 | crizotinib 0.026 | [2] 0.173 | [3] -0.005 | gandotinib 0.013 | tozasertib -0.017 | doramapimod 0.016

MRPL46 (UniProt Q9H2W6)
inactive: [1] 0.042 | crizotinib 0.039 | [2] -0.019 | [3] 0.186 | gandotinib 0.026 | [4] 0.054 | doramapimod 0.06 | ispinesib -0.157

MICALL1 (UniProt Q8N3F8)
inactive: [1] 0.041 | crizotinib -0.005 | [2] 0.065 | [3] 0.12 | duvelisib 0.111 | gandotinib -0.241 | tozasertib -0.046 | [4] -0.031 | doramapimod 0.14 | ispinesib -0.153

MORF4L2 (UniProt Q15014)
active: [2] -0.275
inactive: [1] -0.085 | crizotinib 0.013 | [3] 0.053 | gandotinib 0.085 | [4] -0.012 | doramapimod 0.035 | ispinesib 0.011

MIEF1 (UniProt L0R8F8)
inactive: [1] -0.023 | crizotinib 0.068 | [2] -0.067 | [3] -0.065 | gandotinib -0.062 | [4] -0.025 | doramapimod -0.04 | ispinesib -0.03

MICU2 (UniProt Q8IYU8)
inactive: [1] 0.014 | crizotinib -0.173 | [2] -0.026 | [3] 0.108 | gandotinib -0.062 | [4] 0.035 | doramapimod -0.009 | ispinesib -0.213

MKNK1 (UniProt Q9BUB5)
inactive: [1] 0.038 | crizotinib -0.082 | [2] -0.039 | gandotinib 0.038 | [4] 0.057 | doramapimod 0.054 | ispinesib -0.03
active: [3] 0.31

MINK1 (UniProt Q8N4C8)
inactive: [1] 0.032 | crizotinib -0.207 | [2] -0.038 | [3] -0.067 | gandotinib -0.024 | [4] 0.073 | doramapimod -0.035 | ispinesib -0.032

MRPL47 (UniProt Q9HD33)
inactive: [1] 0.039 | crizotinib 0.019 | [2] -0.087 | [3] 0.261 | [4] 0.095 | doramapimod 0.11 | ispinesib -0.237
active: gandotinib 0.625

MIF (UniProt P14174)
inactive: [1] -0.027 | crizotinib 0.025 | [2] 0.111 | [3] -0.048 | gandotinib 0.079 | [4] -0.025 | doramapimod -0.019 | ispinesib 0.055

MMS19 isoform 8 (UniProt Q96T76)
inactive: [1] 0.002 | crizotinib -0.156 | [2] 0.023 | [3] 0.053 | gandotinib -0.129 | [4] 0.103 | doramapimod 0.033 | ispinesib -0.035

MIER1 isoform 12 (UniProt Q8N108)
inactive: [1] 0.009 | crizotinib -0.027 | [2] 0.035 | [3] -0.034 | gandotinib -0.004 | [4] 0.035 | doramapimod 0.026 | ispinesib -0.029

MOV10 (UniProt Q9HCE1)
inactive: [1] -0.086 | crizotinib 0.032 | [2] -0.258 | [3] 0.254 | gandotinib 0.239 | [4] -0.023 | doramapimod 0.103 | ispinesib -0.093

MLST8 (UniProt Q9BVC4)
inactive: [1] -0.07 | crizotinib -0.12 | [2] 0.014 | [3] 0.089 | [4] 0.079 | doramapimod 0.042

MR1 (UniProt Q95460)
inactive: crizotinib -0.215 | [2] -0.03 | doramapimod -0.008

MMP15 (UniProt P51511)
inactive: gandotinib 0.033

MMAA (UniProt Q8IVH4)
inactive: [1] -0.072 | [2] 0.102 | [3] 0.083 | duvelisib -0.048 | [4] -0.143
